Assay results from the supplement of paper PMC12823440, “Inhibitors supercharge kinase turnover through native proteolytic circuits” (Nature, 2025).
Some of the results follow. The calls rarely recur for the same compound in another form.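 In K562 cells expressing nanoluciferase-fused kinases, luminescence was recorded at 4 h intervals between 2 and 18 h, normalized as percent of control with DMSO at 100% and a positive control at 0%. A significant (2 sigma) signal drop marks a time point as decreased. The authors' rule for a hit is not shown and takes in more than the number of time points.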

Chains of the proteins cited; added tags and fusions are not shown.
UniProt Q00534, whole entry: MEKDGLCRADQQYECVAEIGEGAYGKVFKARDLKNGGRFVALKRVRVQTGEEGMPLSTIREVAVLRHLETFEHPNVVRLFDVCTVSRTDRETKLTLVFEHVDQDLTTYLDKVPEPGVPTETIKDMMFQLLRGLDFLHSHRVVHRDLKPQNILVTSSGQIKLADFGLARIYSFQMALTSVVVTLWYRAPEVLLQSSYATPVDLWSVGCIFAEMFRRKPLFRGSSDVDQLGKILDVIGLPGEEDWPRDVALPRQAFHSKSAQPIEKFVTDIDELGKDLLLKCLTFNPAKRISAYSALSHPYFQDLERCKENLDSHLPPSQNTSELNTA

target: CDK6 (UniProt Q00534); assay: number of time points (of 5) at which kinase-Nluc abundance scored as decreased, DMSO-normalised (count); higher = more persistent destabilization; settings: K562; 2-18 h

SMILES	number of time points
N#Cc1ccc2[nH]c(O)c(-c3ccc(CN4CCOCC4)cn3)c2c1 (10 µM)	0
CCN(CC)CCCCNc1ncc2cc(-c3cc(OC)cc(OC)c3)c(NC(=O)NC(C)(C)C)nc2n1 (10 µM)	0
Oc1ccc(-c2nc(-c3ccc(F)cc3)c(-c3ccncc3)[nH]2)cc1 (2.5 µM)	0
O=C1NCCc2[nH]c(-c3ccnc(-c4cnc5ccccc5c4)c3)cc21 (10 µM)	0
Cc1cc(N2CCOCC2)cc2[nH]c(-c3c(NC[C@@H](O)c4cccc(Cl)c4)cc[nH]c3=O)nc12 (10 µM)	0
COc1cc(OC)cc(-c2cc3cnc(N)nc3nc2NC(=O)NC(C)(C)C)c1 (10 µM)	0
Cc1ccc(NC(=O)Nc2nnc(Sc3ncnc4cc(OCCCN5CCOCC5)ccc34)s2)cc1 (10 µM)	0
N#C/C(=C\c1ccc(O)c(O)c1)C(=O)NCCCc1ccccc1 (10 µM)	0
Cc1cccc([C@@H](CO)NC(=O)[C@@H](C)N2Cc3ccc(-c4nc(NC5CCOCC5)ncc4Cl)cc3C2=O)c1 [ERK1/2 inhibitor 1] (10 µM)	0
CCOc1ccn(-c2ccc(F)cc2)c(=O)c1C(=O)Nc1ccc(Oc2ccnc(N)c2Cl)c(F)c1 (10 µM)	0
O=c1cc(N2CCOCC2)oc2c(-c3ccccc3)cccc12 (10 µM)	0
O=c1oc2c(O)c(O)cc3c(=O)oc4c(O)c(O)cc1c4c23 [Ellagic acid] (10 µM)	0
C=CC(=O)Nc1ccc2ncnc(Nc3cccc(Br)c3)c2c1 (10 µM)	0

Reprinted at random: 2 records from the list, in no set order.
SMILES	number of time points
N#C/C(=C\c1ccc(O)c(O)c1)C(=O)NCCCc1ccccc1 (10 µM)	0
O=C1NCCc2[nH]c(-c3ccnc(-c4cnc5ccccc5c4)c3)cc21 (10 µM)	0
